First the molecules themselves.
B1: carboxypeptidase D (protein, UniProt O75976 32-1380)
chain: AHIKKAEATTTTTSAGAEAAEGQFDRYYHEEELESALREAAAAGLPGLARLFSIGRSVEGRPLWVLRLTAGLGSLIPEGDAGPDAAGPDAAGPLLPGRPQVKLVGNMHGDETVSRQVLIYLARELAAGYRRGDPRLVRLLNTTDVYLLPSLNPDGFERAREGDCGFGDGGPSGASGRDNSRGRDLNRSFPDQFSTGEPPALDEVPEVRALIEWIRRNKFVLSGNLHGGSVVASYPFDDSPEHKATGIYSKTSDDEVFKYLAKAYASNHPIMKTGEPHCPGDEDETFKDGITNGAHWYDVEGGMQDYNYVWANCFEITLELSCCKYPPASQLRQEWENNRESLITLIEKVHIGVKGFVKDSITGSGLENATISVAGINHNITTGRFGDFYRLLVPGTYNLTVVLTGYMPLTVTNVVVKEGPATEVDFSLRPTVTSVIPDTTEAVSTASTVAIPNILSGTSSSYQPIQPKDFHHHHFPDMEIFLRRFANEYPNITRLYSLGKSVESRELYVMEISDNPGVHEPGEPEFKYIGNMHGNEVVGRELLLNLIEYLCKNFGTDPEVTDLVHNTRIHLMPSMNPDGYEKSQEGDSISVIGRNNSNNFDLNRNFPDQFVQITDPTQPETIAVMSWMKSYPFVLSANLHGGSLVVNYPFDDDEQGLATYSKSPDDAVFQQIALSYSKENSQMFQGRPCKNMYPNEYFPHGITNGASWYNVPGGMQDWNYLQTNCFEVTIELGCVKYPLEKELPNFWEQNRRSLIQFMKQVHQGVRGFVLDATDGRGILNATISVAEINHPVTTYKTGDYWRLLVPGTYKITASARGYNPVTKNVTVKSEGAIQVNFTLVRSSTDSNNESKKGKGASSSTNDASDPTTKEFETLIKDLSAENGLESLMLRSSSNLALALYRYHSYKDLSEFLRGLVMNYPHITNLTNLGQSTEYRHIWSLEISNKPNVSEPEEPKIRFVAGIHGNAPVGTELLLALAEFLCLNYKKNPAVTQLVDRTRIVIVPSLNPDGRERAQEKDCTSKIGQTNARGKDLDTDFTNNASQPETKAIIENLIQKQDFSLSVALDGGSMLVTYPYDKPVQTVENKETLKHLASLYANNHPSMHMGQPSCPNKSDENIPGGVMRGAEWHSHLGSMKDYSVTYGHCPEITVYTSCCYFPSAARLPSLWADNKRSLLSMLVEVHKGVHGFVKDKTGKPISKAVIVLNEGIKVQTKEGGYFHVLLAPGVHNIIAIADGYQQQHSQVFVHHDAASSVVIVFDTDNRIFGLPRELVVTVSGATMSALILTACIIWCICSIKSNRHKDGFHRLRQHHDEYEDEIRMMSTGSKKSLLSHEFQDETDTEEETLYSSKH
B2: discoidin, CUB and LCCL domain containing protein 1 (protein, UniProt Q8N8Z6 35-715)
chain: EELGDGCGHLVTYQDSGTMTSKNYPGTYPNHTVCEKTITVPKGKRLILRLGDLDIESQTCASDYLLFTSSSDQYGPYCGSMTVPKELLLNTSEVTVRFESGSHISGRGFLLTYASSDHPDLITCLERASHYLKTEYSKFCPAGCRDVAGDISGNMVDGYRDTSLLCKAAIHAGIIADELGGQISVLQRKGISRYEGILANGVLSRDGSLSDKRFLFTSNGCSRSLSFEPDGQIRASSSWQSVNESGDQVHWSPGQARLQDQGPSWASGDSSNNHKPREWLEIDLGEKKKITGIRTTGSTQSNFNFYVKSFVMNFKNNNSKWKTYKGIVNNEEKVFQGNSNFRDPVQNNFIPPIVARYVRVVPQTWHQRIALKVELIGCQITQGNDSLVWRKTSQSTSVSTKKEDETITRPIPSEETSTGINITTVAIPLVLLVVLVFAGMGIFAAFRKKKKKGSPYGSAEAQKTDCWKQIKYPFARHQSAEFTISYDNEKEMTQKLDLITSDMADYQQPLMIGTGTVTRKGSTFRPMDTDAEEAGVSTDAGGHYDCPQRAGRHEYALPLAPPEPEYATPIVERHVLRAHTFSAQSGYRVPGPQPGHKHSLSSGGFSPVAGVGAQDGDYQRPHSAQPADRGYDRPKAVSALATESGHPDSQKPPTHPGTSDSYSAPRDCLTPLNQTAMTALL
B3: syndecan-1 (protein, UniProt P18827 23-310)
chain: QIVATNLPPEDQDGSGDDSDNFSGSGAGALQDITLSQQTPSTWKDTQLLTAIPTSPEPTGLEATAASTSTLPAGEGPKEGEAVVLPEVEPGLTAREQEATPRPRETTQLPTTHLASTTTATTAQEPATSHPHRDMQPGHHETSTPAGPSQADLHTPHTEDGGPSATERAAEDGASSQLPAAEGSGEQDFTFETSGENTAVVAVEPDRRNQSPVDQGATGASQGLLDRKEVLGGVIAGGLVGLIFAVCLVGFMLYRMKKKDEGSYSLEEPKQANGGAYQKPTKQEEFYA
B4: Diacylglycerol kinase delta (protein, UniProt Q16760 1-1214)
chain: MAAAAGAPPPGPPQPPPPPPPEESSDSEPEAEPGSPQKLIRKVSTSGQIRQKTIIKEGMLTKQNNSFQRSKRRYFKLRGRTLYYAKTAKSIIFDEVDLTDASVAESSTKNVNNSFTVITPCRKLILCADNRKEMEDWIAALKTVQNREHFEPTQYSMDHFSGMHNWYACSHARPTYCNVCREALSGVTSHGLSCEVCKFKAHKRCAVRATNNCKWTTLASIGKDIIEDADGIAMPHQWLEGNLPVSAKCTVCDKTCGSVLRLQDWRCLWCKAMVHTSCKESLLTKCPLGLCKVSVIPPTALNSIDSDGFWKASCPPSCTSPLLVFVNSKSGDNQGVKFLRRFKQLLNPAQVFDLMNGGPHLGLRLFQKFDTFRILVCGGDGSVGWVLSEIDSLNLHKQCQLGVLPLGTGNDLARVLGWGSACDDDTQLPQILEKLERASTKMLDRWSVMAYEAKLPRQASSSTVTEDFSEDSEVQQILFYEDSVAAHLSKILTSDQHSVVISSAKVLCETVKDFVARVGKAYEKTTESSEESEVMAKKCSVLKEKLDSLLKTLDDESQASSSLPNPPPTIAEEAEDGDGSGSICGSTGDRLVASACPARPQIFRPREQLMLRANSLKKAIRQIIEHTEKAVDEQNAQTQEQEGFVLGLSESEEKMDHRVCPPLSHSESFGVPKGRSQRKVSKSPCEKLISKGSLSLGSSASLPPQPGSRDGLPALNTKILYPNVRAGMSGSLPGGSVISRLLINADPFNSEPETLEYYTEKCVMNNYFGIGLDAKISLDFNNKRDEHPEKCRSRTKNMMWYGVLGTKELLHRTYKNLEQKVLLECDGRPIPLPSLQGIAVLNIPSYAGGTNFWGGTKEDDTFAAPSFDDKILEVVAVFGSMQMAVSRVIRLQHHRIAQCRTVKISILGDEGVPVQVDGEAWVQPPGYIRIVHKNRAQTLTRDRAFESTLKSWEDKQKCELPRPPSCSLHPEMLSEEEATQMDQFGQAAGVLIHSIREIAQSHRDMEQELAHAVNASSKSMDRVYGKPRTTEGLNCSFVLEMVNNFRALRSETELLLSGKMALQLDPPQKEQLGSALAEMDRQLRRLADTPWLCQSAEPGDEESVMLDLAKRSRSGKFRLVTKFKKEKNNKNKEAHSSLGAPVHLWGTEEVAAWLEHLSLCEYKDIFTRHDIRGSELLHLERRDLKDLGVTKVGHMKRILCGIKELSRSAPAVEA
B5: G protein regulated inducer of neurite outgrowth 2 (protein, UniProt O60269 1-458)
chain: MSSSRPEPGPWAPLSPRLQPLSQSSSSLLGEGREQRPELRKTASSTVWQAQLGEASTRPQAPEEEGNPPESMKPARASGPKARPSAGGHWWSSTVGNVSTMGGSDLCRLRAPSAAAMQRSHSDLVRSTQMRGHSGARKASLSCSALGSSPVHRAQLQPGGTSGQGGQAPAGLERDLAPEDETSNSAWMLGASQLSVPPLDLGDTTAHSSSAQAEPKAAEQLATTTCHALPPAALLCGMREVRAGGCCHALPATGILAFPKLVASVSESGLQAQHGVKIHCRLSGGLPGHSHCCAHLWGPAGLVPEPGSRTKDVWTMTSANDLAPAEASPLSAQDAGVQAAPVAACKAVATSPSLEAPAALHVFPEVTLGSSLEEVPSPVRDVRWDAEGMTWEVYGAAVDLEVLGVAIQKHLEMQFEQLQRAPASEDSLSVEGRRGPLRAVMQSLRRPSCCGCSGAAPE
B6: dystroglycan-1 (protein, UniProt Q14118 30-895)
chain: HWPSEPSEAVRDWENQLEASMHSVLSDLHEAVPTVVGIPDGTAVVGRSFRVTIPTDLIASSGDIIKVSAAGKEALPSWLHWDSQSHTLEGLPLDTDKGVHYISVSATRLGANGSHIPQTSSVFSIEVYPEDHSELQSVRTASPDPGEVVSSACAADEPVTVLTVILDADLTKMTPKQRIDLLHRMRSFSEVELHNMKLVPVVNNRLFDMSAFMAGPGNAKKVVENGALLSWKLGCSLNQNSVPDIHGVEAPAREGAMSAQLGYPVVGWHIANKKPPLPKRVRRQIHATPTPVTAIGPPTTAIQEPPSRIVPTPTSPAIAPPTETMAPPVRDPVPGKPTVTIRTRGAIIQTPTLGPIQPTRVSEAGTTVPGQIRPTMTIPGYVEPTAVATPPTTTTKKPRVSTPKPATPSTDSTTTTTRRPTKKPRTPRPVPRVTTKVSITRLETASPPTRIRTTTSGVPRGGEPNQRPELKNHIDRVDAWVGTYFEVKIPSDTFYDHEDTTTDKLKLTLKLREQQLVGEKSWVQFNSNSQLMYGLPDSSHVGKHEYFMHATDKGGLSAVDAFEIHVHRRPQGDRAPARFKAKFVGDPALVLNDIHKKIALVKKLAFAFGDRNCSTITLQNITRGSIVVEWTNNTLPLEPCPKEQIAGLSRRIAEDDGKPRPAFSNALEPDFKATSITVTGSGSCRHLQFIPVVPPRRVPSEAPPTEVPDRDPEKSSEDDVYLHTVIPAVVVAAILLIAGIIAMICYRKKRKGKLTLEDQATFIKKGVPIIFADELDDSKPPPSSSMPLILQEEKAPLPPPEYPNQSVPETTPLNQDTMGEYTPLRDEDPNAPPYQPPPPFTAPMEGKGSRPKNMTPYRSPPPYVPP
B7: Protein kinase C iota type (protein, UniProt P41743 1-596)
chain: MPTQRDSSTMSHTVAGGGSGDHSHQVRVKAYYRGDIMITHFEPSISFEGLCNEVRDMCSFDNEQLFTMKWIDEEGDPCTVSSQLELEEAFRLYELNKDSELLIHVFPCVPERPGMPCPGEDKSIYRRGARRWRKLYCANGHTFQAKRFNRRAHCAICTDRIWGLGRQGYKCINCKLLVHKKCHKLVTIECGRHSLPQEPVMPMDQSSMHSDHAQTVIPYNPSSHESLDQVGEEKEAMNTRESGKASSSLGLQDFDLLRVIGRGSYAKVLLVRLKKTDRIYAMKVVKKELVNDDEDIDWVQTEKHVFEQASNHPFLVGLHSCFQTESRLFFVIEYVNGGDLMFHMQRQRKLPEEHARFYSAEISLALNYLHERGIIYRDLKLDNVLLDSEGHIKLTDYGMCKEGLRPGDTTSTFCGTPNYIAPEILRGEDYGFSVDWWALGVLMFEMMAGRSPFDIVGSSDNPDQNTEDYLFQVILEKQIRIPRSLSVKAASVLKSFLNKDPKERLGCHPQTGFADIQGHPFFRNVDWDMMEQKQVVPPFKPNISGEFGLDNFDSQFTNEPVQLTPDDDDIVRKIDQSEFEGFEYINPLLMSAEECV
B8: NIPA like domain containing 4 (protein, UniProt Q0D2K0 1-404)
chain: MELRVSNTSCENGSLLHLYCSSQEVLCQIVNDLSPEVPSNATFHSWQERIRQNYGFYIGLGLAFLSSFLIGSSVILKKKGLLRLVATGATRAVDGGFGYLKDAMWWAGFLTMAAGEVANFGAYAFAPATVVTPLGALSVLISAILSSYFLRESLNLLGKLGCVICVAGSTVMVIHAPEEEKVTTIMEMASKMKDTGFIVFAVLLLVSCLILIFVIAPRYGQRNILIYIIICSVIGAFSVAAVKGLGITIKNFFQGLPVVRHPLPYILSLILALSLSTQVNFLNRALDIFNTSLVFPIYYVFFTTVVVTSSIILFKEWYSMSAVDIAGTLSGFVTIILGVFMLHAFKDLDISCASLPHMHKNPPPSPAPEPTVIRLEDKNVLVDNIELASTSSPEEKPKVFIIHS

Protein sequences, listed by entry. Tags and fused reporters are not part of them.
UniProt P21926: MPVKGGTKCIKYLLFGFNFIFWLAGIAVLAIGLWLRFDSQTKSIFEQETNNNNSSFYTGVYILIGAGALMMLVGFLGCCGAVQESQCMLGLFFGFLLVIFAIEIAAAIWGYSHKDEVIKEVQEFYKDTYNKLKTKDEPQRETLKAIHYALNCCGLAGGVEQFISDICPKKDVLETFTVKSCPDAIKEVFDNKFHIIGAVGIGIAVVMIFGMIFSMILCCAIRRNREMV

No constants are given. Whether binding was seen depends on the method and setting. In cells and extracts the contact can be indirect. These calls come from enrichment with a bait or labelling near it, and not all partners need be listed.

The record followed here is article PMC13080232.

This experiment addresses CD9:TurboID fusion protein (human) (UniProt P21926). The experiment can be described thus: proximity labelling; CD9:TurboID-V5 stably expressed in CD9-/- A549 cells; 50 μM biotin for 30, 60 or 240 min; cells uninfected or infected with N. meningitidis MC58 or S. aureus SH1000 (MOI = 50); RIPA lysis, streptavidin bead pull-down, on-bead digestion, LC-MS/MS with LFQ; enrichment against cytosolic TurboID (FDR 0.01, s0 = 2), infected against uninfected (FDR 0.05, s0 = 0.1).
B1: the binding result is recorded as “binds”.

With B2, the binding entry was “binds”.

B3: the binding entry is “binds”.

On to B4, for which the binding entry is “binds”.

Turning to B5, the binding result is reported as “binds”.

Regarding B6, the binding entry is “binds”.

Consider B7, for which the binding entry was “binds”.

Consider B8, for which the binding result is “binds”.
